Test results published in article PMC8224940.
Results are given in words; binding and its absence hold for the method and conditions named. In cells and extracts the contact can be indirect. Some binding calls cover weakened binding; strength is not graded here. For part of these data: Sequences can lack the tags named with a protein.

Assays:
[1] = target: HA-tagged RIOK2^WT (human) (UniProt Q9BVS4); assay: co-IP; HA-RIOK2 (WT or S483A) immunoprecipitated from transfected HEK293 lysate (buffer A with 0.1 M KCl, protein A-Sepharose); endogenous NOB1 detected by Western blot
[2] = target: HA-tagged RIOK2^S483A (human) (UniProt Q9BVS4); assay: as above
HA-tagged NOB1 = target: T1, HA-tagged NOB1 (UniProt Q9ULX3); assay: co-IP; HA-NOB1 immunoprecipitated from HEK293 cells co-transfected with Flag-RIOK2 (WT, S483A or S483D) (buffer A with 0.1 M KCl); co-purified proteins of pre-40S particles detected by Western blot
T1 sequence: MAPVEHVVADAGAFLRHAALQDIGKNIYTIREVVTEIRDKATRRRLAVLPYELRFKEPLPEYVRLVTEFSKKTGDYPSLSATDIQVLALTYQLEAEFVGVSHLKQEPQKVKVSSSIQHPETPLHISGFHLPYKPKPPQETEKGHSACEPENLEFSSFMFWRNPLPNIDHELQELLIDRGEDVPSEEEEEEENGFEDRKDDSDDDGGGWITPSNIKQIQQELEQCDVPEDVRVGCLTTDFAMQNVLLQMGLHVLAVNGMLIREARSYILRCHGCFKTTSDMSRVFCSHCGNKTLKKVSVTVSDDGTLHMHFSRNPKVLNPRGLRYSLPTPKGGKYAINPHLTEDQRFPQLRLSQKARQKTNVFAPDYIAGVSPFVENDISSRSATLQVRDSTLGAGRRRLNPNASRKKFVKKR

binding [1] | binding [2] | binding (HA-tagged NOB1) | Binder
binds | binds | – | endogenous NOB1 (protein, UniProt Q9ULX3 1-412) MAPVEHVVADAGAFLRHAALQDIGKNIYTIREVVTEIRDKATRRRLAVLPYELRFKEPLPEYVRLVTEFSKKTGDYPSLSATDIQVLALTYQLEAEFVGVSHLKQEPQKVKVSSSIQHPETPLHISGFHLPYKPKPPQETEKGHSACEPENLEFSSFMFWRNPLPNIDHELQELLIDRGEDVPSEEEEEEENGFEDRKDDSDDDGGGWITPSNIKQIQQELEQCDVPEDVRVGCLTTDFAMQNVLLQMGLHVLAVNGMLIREARSYILRCHGCFKTTSDMSRVFCSHCGNKTLKKVSVTVSDDGTLHMHFSRNPKVLNPRGLRYSLPTPKGGKYAINPHLTEDQRFPQLRLSQKARQKTNVFAPDYIAGVSPFVENDISSRSATLQVRDSTLGAGRRRLNPNASRKKFVKKR
– | – | binds | Flag-tagged RIOK2^S483D (protein, UniProt Q9BVS4 1-552) MGKVNVAKLRYMSRDDFRVLTAVEMGMKNHEIVPGSLIASIASLKHGGCNKVLRELVKHKLIAWERTKTVQGYRLTNAGYDYLALKTLSSRQVVESVGNQMGVGKESDIYIVANEEGQQFALKLHRLGRTSFRNLKNKRDYHKHRHNVSWLYLSRLSAMKEFAYMKALYERKFPVPKPIDYNRHAVVMELINGYPLCQIHHVEDPASVYDEAMELIVKLANHGLIHGDFNEFNLILDESDHITMIDFPQMVSTSHPNAEWYFDRDVKCIKDFFMKRFSYESELFPTFKDIRREDTLDVEVSASGYTKEMQADDELLHPLGPDDKNIETKEGSEFSFSDGEVAEKAEVYGSENESERNCLEESEGCYCRSSGDPEQIKEDSLSEESADARSFEMTEFNQALEEIKGQVVENNSVTEFSEEKNRTENYNRQDGQRVQGGVPAGSDEYEDECPHLIALSSLNREFRPFRDEENVGAMNQYRTRTLDITSSGSAVSCSTIPPELVKQKVKRQLTKQQKSAVRRRLQKGEANIFTKQRRENMQNIKSSLEAASFWGE
